PubChem BioAssay AID743121 | NCATS – 2013
The whole screen tested about 26,000 reagents; shown is an unselected part. 167 of them (0.63%) count as active. 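Calls are per gene from RSA p-values that are not deposited; an individual active-marked siRNA can sensitise only weakly.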 Reagents against one gene are numbered here. Not all columns of the deposit are shown.

Screen: 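Knock-downs that sensitise breast cancer cells to camptothecin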 (primary screen)
Cells: MDA-MB-231 cells, a human breast cancer line
Knock-down reagent: single siRNA against human genes, 20 nM siRNA (0.8 pmol per well)
Duration: 120 h (drug added 48 h after transfection, read 72 h later)
Challenge: camptothecin 20 nM (about EC30) for 72 h; vehicle 0.1% DMSO in parallel plates
Measured: 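Cell viability by ATP luminescence (CellTiter-Glo) as % of non-targeting siRNA wells, and the log2 ratio of viability without drug over viability with camptothecin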
Reading the numbers: log2 vehicle/camptothecin viability: higher = stronger sensitisation to camptothecin
Active means: 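Active genes have an RSA gene-level p-value below 0.001, computed from the ratios of their separate siRNAs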

{"Gene": "ZNRF4", "reagent no.": 1, "log2 vehicle/camptothecin viability": -0.35, "activity call": "inactive"}
{"Gene": "ZNRF4", "reagent no.": 2, "log2 vehicle/camptothecin viability": -0.0698, "activity call": "inactive"}
{"Gene": "ZNRF4", "reagent no.": 3, "log2 vehicle/camptothecin viability": -0.345, "activity call": "inactive"}
{"Gene": "ZNRF4", "reagent no.": 4, "log2 vehicle/camptothecin viability": -0.432, "activity call": "inactive"}
{"Gene": "SLC26A2", "reagent no.": 1, "log2 vehicle/camptothecin viability": -0.197, "activity call": "inactive"}
{"Gene": "SLC26A2", "reagent no.": 2, "log2 vehicle/camptothecin viability": -0.201, "activity call": "inactive"}
{"Gene": "SLC26A2", "reagent no.": 3, "log2 vehicle/camptothecin viability": -0.313, "activity call": "inactive"}
{"Gene": "SLC26A2", "reagent no.": 4, "log2 vehicle/camptothecin viability": -0.0713, "activity call": "inactive"}

2 consecutive records from above, for reference:
{"Gene": "SLC26A2", "reagent no.": 2, "log2 vehicle/camptothecin viability": -0.201, "activity call": "inactive"}
{"Gene": "SLC26A2", "reagent no.": 3, "log2 vehicle/camptothecin viability": -0.313, "activity call": "inactive"}

Next records:
{"Gene": "NLE1", "reagent no.": 1, "log2 vehicle/camptothecin viability": -0.22, "activity call": "inactive"}
{"Gene": "NLE1", "reagent no.": 2, "log2 vehicle/camptothecin viability": -0.119, "activity call": "inactive"}
{"Gene": "NLE1", "reagent no.": 3, "log2 vehicle/camptothecin viability": -0.378, "activity call": "inactive"}
{"Gene": "NLE1", "reagent no.": 4, "log2 vehicle/camptothecin viability": -0.199, "activity call": "inactive"}
{"Gene": "CD74", "reagent no.": 1, "log2 vehicle/camptothecin viability": 0.122, "activity call": "inactive"}
{"Gene": "CD74", "reagent no.": 2, "log2 vehicle/camptothecin viability": -0.175, "activity call": "inactive"}
{"Gene": "CD74", "reagent no.": 3, "log2 vehicle/camptothecin viability": -0.254, "activity call": "inactive"}
{"Gene": "CD74", "reagent no.": 4, "log2 vehicle/camptothecin viability": -0.368, "activity call": "inactive"}
